Experimental data reported in patent US20250145665A1, “MACROCYCLIC PEPTIDES USEFUL AS MODULATORS OF TNF ALPHA” (Bristol-Myers Squibb Company, priority 2023, published 2025).
Some entries share one result that the patent states for a list of compounds. Starred links: 1 amine or outer side, 2 acyl side, 3 side chain; linkers in the order of their positions; H or OH if unused. Positions of bridges follow the written chain, without caps; N, C: chain ends. Non-standard residues stand in square brackets, D forms with d. Residues, ends and D or L forms follow the SMILES beside them. *: point of attachment. Bip(4'-(3-HOOC-benzamido)) = N[C@@H](Cc1ccc(-c2ccc(NC(=O)c3cccc(C(=O)O)c3)cc2)cc1)C(=O)O; X47 = O=C(Nc1ccc(-c2ccc(C[C@H](N[*:1])C(=O)[*:2])cc2)cc1)c1coc2ccccc12; Bip(4'-NH) = O=C([C@H](Cc1ccc(-c2ccc(N[*:3])cc2)cc1)N[*:1])[*:2]; Bip(4'-CONHMe) = CNC(=O)c1ccc(-c2ccc(C[C@H](N)C(=O)O)cc2)cc1; Bip(4'-COOH) = N[C@@H](Cc1ccc(-c2ccc(C(=O)O)cc2)cc1)C(=O)O; Bip(4'-NHAc) = CC(=O)Nc1ccc(-c2ccc(C[C@H](N)C(=O)O)cc2)cc1; X70 = O=C([C@H](Cc1ccc(-c2ccc(CN[*:3])cc2)cc1)N[*:1])[*:2]; X11 = CC(=O)N[C@@H](Cc1cn(CC(=O)O)c2ccccc12)C(=O)*; Ala(imidazol-2-yl) = N[C@@H](Cc1ncc[nH]1)C(=O)O; Ala(morpholin-4-yl) = N[C@@H](CN1CCOCC1)C(=O)O; Benzoyl(3-OCH2COOH) = O=C(O)COc1cccc(C(=O)*)c1; Benzoyl(4-OCH2COOH) = O=C(O)COc1ccc(C(=O)*)cc1; Phe(3-CONH2) = NC(=O)c1cccc(C[C@H](N)C(=O)O)c1; Bip = N[C@@H](Cc1ccc(-c2ccccc2)cc1)C(=O)O; X67 = O=C(O)c1ccc(-c2cccc(C(=O)*)c2)cc1; X75 = O=C(O)Cn1ccc2c(C(=O)*)cccc21; X86 = O=C(O)Cn1ccc2cc(C(=O)*)ccc21; X16 = Cc1noc(-c2ccc(C(=O)*)cc2)n1; 2Pal = N[C@@H](Cc1ccccn1)C(=O)O; Tic = O=C(O)[C@@H]1Cc2ccccc2CN1; Cha = N[C@@H](CC1CCCCC1)C(=O)O; X20 = O=C(c1csc(-c2ccncc2)n1)*; Tle = CC(C)(C)[C@H](N)C(=O)O; Aze = O=C(O)[C@@H]1CCN1; Sar = CNCC(=O)O

Protein sequences, listed by entry. Tags and fused reporters are not part of them. Residues count along the entry.
UniProt P01375, 77-233 limits assumed: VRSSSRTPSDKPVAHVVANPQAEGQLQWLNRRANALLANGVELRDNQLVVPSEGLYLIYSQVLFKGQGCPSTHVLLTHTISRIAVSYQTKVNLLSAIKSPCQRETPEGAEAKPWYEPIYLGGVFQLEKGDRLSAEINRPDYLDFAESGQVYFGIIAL

Target: TNFα (Homo sapiens, UniProt P01375)
Test: TNF-Induced HEK-Blue Assay
Type: cell-based
Conditions: summary statement for all examples; read-out: IC50 values measured in the TNF induced HEK-Blue assay

IC50, ≤ 25 µM:
CC[C@H](C)[C@@H]1NC(=O)[C@@H]2CCN2C(=O)[C@H]([C@@H](C)CC)NC(=O)[C@@H](CCCNC(=N)N)NC(=O)[C@H](CC(=O)O)NC(=O)[C@H](Cc2ccc(O)cc2)NC(=O)CN(C)C(=O)[C@H](Cc2ccc(-c3ccc(NC(=O)c4cccc(OCC(=O)O)c4)cc3)cc2)NC(=O)[C@H](Cc2ccc(-c3ccccc3)cc2)NC(=O)[C@H](C(C)(C)C)NC(=O)CSC[C@@H](C(=O)NCC(N)=O)NC(=O)[C@H](CC(C)C)NC(=O)[C@H](Cc2ccc(O)cc2)NC1=O [Example 378] ({CH2CO}-[Tle][Bip][Bip(4'-NH)](Benzoyl(3-OCH2COOH))[Sar]YD[dR]I[Aze]IYLCG-NH2; thioether N-13)
CC[C@H](C)[C@@H]1NC(=O)[C@@H]2CCCN2C(=O)[C@H]([C@@H](C)CC)NC(=O)[C@@H](CCCNC(=N)N)NC(=O)[C@H](CC(=O)O)NC(=O)[C@H](Cc2ccccn2)NC(=O)CN(C)C(=O)[C@H](Cc2ccc(-c3ccc(NC(=O)[C@H](Cc4cn(CC(=O)O)c5ccccc45)NC(C)=O)cc3)cc2)NC(=O)[C@H](Cc2ccc(-c3ccccc3)cc2)NC(=O)[C@H](C(C)(C)C)NC(=O)CSC[C@@H](C(=O)NCC(N)=O)NC(=O)[C@H](CC(C)C)NC(=O)[C@H](Cc2cccc(C(N)=O)c2)NC1=O [Example 379] ({CH2CO}-[Tle][Bip][Bip(4'-NH)](X11)[Sar][2Pal]D[dR]IPI[Phe(3-CONH2)]LCG-NH2; thioether N-13)
CC(C)C[C@@H]1NC(=O)[C@H](Cc2ccc(O)cc2)NC(=O)[C@H](C(C)C)NC(=O)[C@@H]2Cc3ccccc3CN2C(=O)[C@H](C(C)C)NC(=O)[C@@H](CCCNC(=N)N)NC(=O)[C@H](CC(=O)O)NC(=O)[C@@H]2CCCN2C(=O)CN(C)C(=O)[C@H](Cc2ccc(-c3ccc(NC(=O)c4cccc(-c5ccc(C(=O)O)cc5)c4)cc3)cc2)NC(=O)[C@H](Cc2ccc(-c3ccc(C(=O)O)cc3)cc2)NC(=O)[C@H](CC2CCCCC2)NC(=O)CSC[C@@H](C(=O)NCC(N)=O)NC1=O [Example 381] ({CH2CO}-[Cha][Bip(4'-COOH)][Bip(4'-NH)](X67)[Sar]PD[dR]V[Tic]VYLCG-NH2; thioether N-13)
CC(C)C[C@@H]1NC(=O)[C@H](CCCNC(=N)N)NC(=O)[C@H](C(C)C)NC(=O)[C@@H]2CCCN2C(=O)[C@H](C(C)C)NC(=O)[C@@H](CCCNC(=N)N)NC(=O)[C@H](CC(=O)O)NC(=O)[C@@H]2CCCN2C(=O)CN(C)C(=O)[C@H](Cc2ccc(-c3ccc(NC(=O)c4cccc5c4ccn5CC(=O)O)cc3)cc2)NC(=O)[C@H](Cc2ccc(-c3ccccc3)cc2)NC(=O)[C@H](CN2CCOCC2)NC(=O)CSC[C@@H](C(=O)NCC(N)=O)NC1=O [Example 382] ({CH2CO}-[Ala(morpholin-4-yl)][Bip][Bip(4'-NH)](X75)[Sar]PD[dR]VPVRLCG-NH2; thioether N-13)
CC(C)C[C@@H]1NC(=O)[C@H](Cc2ccc(O)cc2)NC(=O)[C@H](C(C)C)NC(=O)[C@@H]2Cc3ccccc3CN2C(=O)[C@H](C(C)C)NC(=O)[C@@H](CCCNC(=N)N)NC(=O)[C@H](CC(=O)O)NC(=O)[C@@H]2CCCN2C(=O)CN(C)C(=O)[C@H](Cc2ccc(-c3ccc(NC(=O)c4cccc(C(=O)O)c4)cc3)cc2)NC(=O)[C@H](Cc2ccc(-c3ccc(C(=O)O)cc3)cc2)NC(=O)[C@H](CC2CCCCC2)NC(=O)CSC[C@@H](C(=O)NCC(N)=O)NC1=O [Example 384] ({CH2CO}-[Cha][Bip(4'-COOH)][Bip(4'-(3-HOOC-benzamido))][Sar]PD[dR]V[Tic]VYLCG-NH2; thioether N-13)
CC[C@H](C)[C@@H]1NC(=O)[C@@H]2CCCN2C(=O)[C@H]([C@@H](C)CC)NC(=O)[C@@H](CCCNC(=N)N)NC(=O)[C@H](CC(=O)O)NC(=O)[C@H](Cc2ccccc2)NC(=O)CN(C)C(=O)[C@H](Cc2ccc(-c3ccc(NC(C)=O)cc3)cc2)NC(=O)[C@H](Cc2ccc(-c3ccc(C(=O)NC)cc3)cc2)NC(=O)[C@H](C(C)(C)C)NC(=O)CSC[C@@H](C(=O)NCC(N)=O)NC(=O)[C@H](CC(C)C)NC(=O)[C@H](Cc2cnc[nH]2)NC1=O [Example 385] ({CH2CO}-[Tle][Bip(4'-CONHMe)][Bip(4'-NHAc)][Sar]FD[dR]IPIHLCG-NH2; thioether N-13)
CNC(=O)c1ccc(-c2ccc(C[C@@H]3NC(=O)[C@H](CC4CCCCC4)NC(=O)CSC[C@@H](C(=O)NCC(N)=O)NC(=O)[C@H](CC(C)C)NC(=O)[C@H](Cc4ccc(O)cc4)NC(=O)[C@H](C(C)C)NC(=O)[C@@H]4Cc5ccccc5CN4C(=O)[C@H](C(C)C)NC(=O)[C@@H](CCCNC(=N)N)NC(=O)[C@H](CC(=O)O)NC(=O)[C@@H]4CCCN4C(=O)CN(C)C(=O)[C@H](Cc4ccc(-c5ccc(NC(C)=O)cc5)cc4)NC3=O)cc2)cc1 [Example 386] ({CH2CO}-[Cha][Bip(4'-CONHMe)][Bip(4'-NHAc)][Sar]PD[dR]V[Tic]VYLCG-NH2; thioether N-13)
CC[C@H](C)[C@@H]1NC(=O)[C@@H](CCCNC(=N)N)NC(=O)[C@H](CC(=O)O)NC(=O)[C@H](Cc2cnc[nH]2)NC(=O)CN(C)C(=O)[C@H](Cc2ccc(-c3ccc(NC(=O)c4ccc(OCC(=O)O)cc4)cc3)cc2)NC(=O)[C@H](Cc2ccc(-c3ccc(C(=O)NC)cc3)cc2)NC(=O)[C@H](CC2CCCCC2)NC(=O)CSC[C@@H](C(=O)NCC(N)=O)NC(=O)[C@H](CC(C)C)NC(=O)[C@H](Cc2cnc[nH]2)NC(=O)[C@H](C(C)C)NC(=O)[C@@H]2CCCN2C1=O [Example 395] ({CH2CO}-[Cha][Bip(4'-CONHMe)][Bip(4'-NH)](Benzoyl(4-OCH2COOH))[Sar]HD[dR]IPVHLCG-NH2; thioether N-13)
CC[C@H](C)[C@@H]1NC(=O)[C@@H](CCCNC(=N)N)NC(=O)[C@H](CC(=O)O)NC(=O)[C@H](Cc2cnc[nH]2)NC(=O)CN(C)C(=O)[C@H](Cc2ccc(-c3ccc(C(=O)NC)cc3)cc2)NC(=O)[C@H](Cc2ccc(-c3ccccc3)cc2)NC(=O)[C@H](CC2CCCCC2)NC(=O)CSC[C@@H](C(=O)NCC(N)=O)NC(=O)[C@H](CC(C)C)NC(=O)[C@H](Cc2cnc[nH]2)NC(=O)[C@H](C(C)C)NC(=O)[C@@H]2CCCN2C1=O [Example 396] ({CH2CO}-[Cha][Bip][Bip(4'-CONHMe)][Sar]HD[dR]IPVHLCG-NH2; thioether N-13)
CC[C@H](C)[C@@H]1NC(=O)[C@@H](CCCNC(=N)N)NC(=O)[C@H](CC(=O)O)NC(=O)[C@H](Cc2cnc[nH]2)NC(=O)CN(C)C(=O)[C@H](Cc2ccc(-c3ccccc3)cc2)NC(=O)[C@H](Cc2ccc(-c3ccc(C(=O)NC)cc3)cc2)NC(=O)[C@H](CC2CCCCC2)NC(=O)CSC[C@@H](C(=O)NCC(N)=O)NC(=O)[C@H](CC(C)C)NC(=O)[C@H](Cc2cnc[nH]2)NC(=O)[C@H](C(C)C)NC(=O)[C@@H]2CCCN2C1=O [Example 397] ({CH2CO}-[Cha][Bip(4'-CONHMe)][Bip][Sar]HD[dR]IPVHLCG-NH2; thioether N-13)
CC(C)C[C@@H]1NC(=O)[C@H](CCCNC(=N)N)NC(=O)[C@H](C(C)C)NC(=O)[C@@H]2CCCN2C(=O)[C@H](C(C)C)NC(=O)[C@@H](CCCNC(=N)N)NC(=O)[C@H](CC(=O)O)NC(=O)[C@@H]2CCCN2C(=O)CN(C)C(=O)[C@H](Cc2ccc(-c3ccc(NC(=O)c4ccc5c(ccn5CC(=O)O)c4)cc3)cc2)NC(=O)[C@H](Cc2ccc(-c3ccccc3)cc2)NC(=O)[C@H](CN2CCOCC2)NC(=O)CSC[C@@H](C(=O)NCC(N)=O)NC1=O [Example 398] ({CH2CO}-[Ala(morpholin-4-yl)][Bip][Bip(4'-NH)](X86)[Sar]PD[dR]VPVRLCG-NH2; thioether N-13)
CC[C@H](C)[C@@H]1NC(=O)[C@@H]2CCCN2C(=O)[C@H]([C@@H](C)CC)NC(=O)[C@@H](CCCNC(=N)N)NC(=O)[C@H](CC(=O)O)NC(=O)[C@H](Cc2ccccc2)NC(=O)CN(C)C(=O)[C@H](Cc2ccc(-c3ccc(CNC(=O)c4cccc(OCC(=O)O)c4)cc3)cc2)NC(=O)[C@H](Cc2ccc(-c3ccccc3)cc2)NC(=O)[C@H](CC2CCCCC2)NC(=O)CSC[C@@H](C(=O)NCC(N)=O)NC(=O)[C@H](CC(C)C)NC(=O)[C@H](Cc2ncc[nH]2)NC1=O [Example 399] ({CH2CO}-[Cha][Bip][X70](Benzoyl(3-OCH2COOH))[Sar]FD[dR]IPI[Ala(imidazol-2-yl)]LCG-NH2; thioether N-13)
CC[C@H](C)[C@@H]1NC(=O)[C@@H]2CCCN2C(=O)[C@H]([C@@H](C)CC)NC(=O)[C@@H](CCCNC(=N)N)NC(=O)[C@H](CC(=O)O)NC(=O)[C@H](Cc2ccccc2)NC(=O)CN(C)C(=O)[C@H](Cc2ccc(-c3ccc(NC(=O)c4coc5ccccc45)cc3)cc2)NC(=O)[C@H](Cc2ccc(-c3ccccc3)cc2)NC(=O)[C@H](CC2CCCCC2)NC(=O)CSC[C@@H](C(=O)NCC(N)=O)NC(=O)[C@H](CC(C)C)NC(=O)[C@H](Cc2ncc[nH]2)NC1=O [Example 401] ({CH2CO}-[Cha][Bip][X47][Sar]FD[dR]IPI[Ala(imidazol-2-yl)]LCG-NH2; thioether N-13)
CC[C@H](C)[C@@H]1NC(=O)[C@@H](CCCNC(=N)N)NC(=O)[C@H](CC(=O)O)NC(=O)[C@H](Cc2cnc[nH]2)NC(=O)CN(C)C(=O)[C@H](Cc2ccc(-c3ccc(NC(=O)c4csc(-c5ccncc5)n4)cc3)cc2)NC(=O)[C@H](Cc2ccc(-c3ccc(C(=O)O)cc3)cc2)NC(=O)[C@H](CC2CCCCC2)NC(=O)CSC[C@@H](C(=O)NCC(N)=O)NC(=O)[C@H](CC(C)C)NC(=O)[C@H](Cc2ncc[nH]2)NC(=O)[C@H](C(C)C)NC(=O)[C@@H]2Cc3ccccc3CN2C1=O [Example 411] ({CH2CO}-[Cha][Bip(4'-COOH)][Bip(4'-NH)](X20)[Sar]HD[dR]I[Tic]V[Ala(imidazol-2-yl)]LCG-NH2; thioether N-13)
CC[C@H](C)[C@@H]1NC(=O)[C@@H](CCCNC(=N)N)NC(=O)[C@H](CC(=O)O)NC(=O)[C@H](Cc2cnc[nH]2)NC(=O)CN(C)C(=O)[C@H](Cc2ccc(-c3ccc(NC(=O)c4ccc(-c5nc(C)no5)cc4)cc3)cc2)NC(=O)[C@H](Cc2ccc(-c3ccc(C(=O)O)cc3)cc2)NC(=O)[C@H](CC2CCCCC2)NC(=O)CSC[C@@H](C(=O)NCC(N)=O)NC(=O)[C@H](CC(C)C)NC(=O)[C@H](Cc2ncc[nH]2)NC(=O)[C@H](C(C)C)NC(=O)[C@@H]2Cc3ccccc3CN2C1=O [Example 412] ({CH2CO}-[Cha][Bip(4'-COOH)][Bip(4'-NH)](X16)[Sar]HD[dR]I[Tic]V[Ala(imidazol-2-yl)]LCG-NH2; thioether N-13)
